Data reported in patent US20230019236A1, “PROTEIN TYROSINE PHOSPHATASE INHIBITORS AND METHODS OF USE THEREOF” (Calico Life Sciences LLC, priority 2019, published 2023).
The structures given here were assigned with low confidence; some may be wrong.

By UniProt entry, the sequences of proteins in these tests, tags left out. Chains listed by the source or under a name are the forms on record and can include a tag or linker. Residues count along the entry.
UniProt P17706, 1-387 with tags or gaps isoform 2: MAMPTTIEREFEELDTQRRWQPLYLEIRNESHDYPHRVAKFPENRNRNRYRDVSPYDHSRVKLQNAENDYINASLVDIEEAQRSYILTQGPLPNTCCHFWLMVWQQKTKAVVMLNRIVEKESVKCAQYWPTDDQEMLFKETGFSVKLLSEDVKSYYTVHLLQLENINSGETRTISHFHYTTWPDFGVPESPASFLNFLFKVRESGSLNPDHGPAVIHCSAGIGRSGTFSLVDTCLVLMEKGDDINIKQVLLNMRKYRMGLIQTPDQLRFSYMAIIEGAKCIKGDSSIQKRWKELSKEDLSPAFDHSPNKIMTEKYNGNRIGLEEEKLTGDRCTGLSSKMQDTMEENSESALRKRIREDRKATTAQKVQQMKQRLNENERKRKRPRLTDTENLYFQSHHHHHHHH
UniProt P18031, 1-321 with tags or gaps: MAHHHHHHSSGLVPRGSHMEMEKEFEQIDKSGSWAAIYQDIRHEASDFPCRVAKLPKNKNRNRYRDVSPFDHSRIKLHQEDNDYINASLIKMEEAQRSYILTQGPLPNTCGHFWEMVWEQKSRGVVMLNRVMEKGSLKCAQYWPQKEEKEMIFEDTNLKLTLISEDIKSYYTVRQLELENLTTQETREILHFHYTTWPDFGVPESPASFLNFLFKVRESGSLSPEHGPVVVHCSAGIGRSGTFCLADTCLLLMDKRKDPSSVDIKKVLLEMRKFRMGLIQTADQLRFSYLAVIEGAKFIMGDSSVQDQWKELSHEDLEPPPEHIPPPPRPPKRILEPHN

How the values were obtained:
[1] = target: His tagged PTPN2 (TC45) protein (Homo sapiens, UniProt P17706); assay: Mobility Shift Assay used to determine potency of PTPN2 inhibitors; conditions: read-out: PTPN2 MSA IC50; Table 2
[2] = target: His tagged full-length PTP1B protein (Homo sapiens, UniProt P18031); assay: Mobility Shift Assay (MSA) used to determine potency of PTP1B inhibitors; assay type: biochemical; conditions: read-out: PTP1B MSA IC50; Table 2

- IC50 [2]: 1 to 10 nM
Compound: CC1(CCOc2ccc3cc(O)c(N4CC(=O)NS4(=O)=O)c(F)c3c2)COC(C)(C)O1 (centres unmarked)
- IC50 [1]: < 1 nM
